# Hit rate of the full screen: of about 320,000 compounds, about 620 (0.19%) were called active. Inconclusive results, whose numbers are uncertain, are shown with a selection of clear calls. Cut-off read from the data, not from the text of the source: active = activation above about 80%; inconclusive = between about 30% and that limit; inactive = weaker than that.
# Chains of the proteins cited; added tags and fusions are not shown.
# UniProt Q8NER1, whole entry, looked up: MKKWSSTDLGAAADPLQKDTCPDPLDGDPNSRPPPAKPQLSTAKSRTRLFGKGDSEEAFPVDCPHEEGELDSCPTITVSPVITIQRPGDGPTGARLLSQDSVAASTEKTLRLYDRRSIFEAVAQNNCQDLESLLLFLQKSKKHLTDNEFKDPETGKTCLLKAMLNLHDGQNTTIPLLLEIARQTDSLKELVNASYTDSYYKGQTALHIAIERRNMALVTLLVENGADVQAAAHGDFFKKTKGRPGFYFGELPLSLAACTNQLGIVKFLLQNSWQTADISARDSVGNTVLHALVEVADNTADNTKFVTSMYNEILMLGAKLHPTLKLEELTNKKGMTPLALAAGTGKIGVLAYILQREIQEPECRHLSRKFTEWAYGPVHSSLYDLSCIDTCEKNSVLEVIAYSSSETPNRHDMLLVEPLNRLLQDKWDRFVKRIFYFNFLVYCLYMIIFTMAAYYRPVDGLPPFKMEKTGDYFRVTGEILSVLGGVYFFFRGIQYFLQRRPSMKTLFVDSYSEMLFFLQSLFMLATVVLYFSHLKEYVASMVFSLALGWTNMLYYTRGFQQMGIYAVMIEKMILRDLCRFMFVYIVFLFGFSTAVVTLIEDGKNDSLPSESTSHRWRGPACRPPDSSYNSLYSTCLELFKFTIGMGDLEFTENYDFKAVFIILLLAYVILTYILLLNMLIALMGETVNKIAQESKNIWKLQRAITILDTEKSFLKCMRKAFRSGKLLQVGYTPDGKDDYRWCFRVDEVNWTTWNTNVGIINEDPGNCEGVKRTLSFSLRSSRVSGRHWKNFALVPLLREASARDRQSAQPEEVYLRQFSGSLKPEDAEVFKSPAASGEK
# Target: Transient receptor potential cation channel subfamily V member 1 (Homo sapiens) (UniProt Q8NER1)
# Test: HTS Assay for Compounds that Act as Agonists of the Vanilloid Receptor 1; note: 0% is about no effect
# Details: TRPV1-expressing cells, Fluo-8 calcium influx, agonist mode; at 8.33 µM, hits give high values
# Method in brief: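 Fluo-8 calcium influx in TRPV1-expressing cells, kinetic read (ex 480/em 520 nm). Compound added and read 3 min for agonist activity, followed by capsaicin at EC20 final and 2 min further read for enhancement.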
row,SMILES,activation
1,CCOC(=O)/C=C/C(=O)Nc1ccc(S(=O)(=O)N2CCCCCC2)cc1,inconclusive: 48.7%
2,COCCNC(=S)N1CCN(c2cccc(C(F)(F)F)c2)CC1,inconclusive: 43.3%
3,CCCOC(=O)c1ccc(Oc2c(-c3ccc(O)cc3O)n[nH]c2C)cc1,inconclusive: 54.8%
4,CCOc1cc(-c2noc(CCCC(N)=O)n2)cc(Br)c1OC,inconclusive: 58.9%
5,O=C(Cn1c(NCCCO)nc2ccccc21)c1ccc([N+](=O)[O-])cc1,inactive: -0.31%
6,Cc1nn(C)cc1/C=N/NC(=S)Nc1ccccc1,inactive: 5.94%
7,CCOC(=O)c1cnc(-n2nc(C)cc2C)nc1NNc1nc(-c2ccccc2)cc(-c2ccccc2)n1,inconclusive: 59.5%
8,c1ccc(CN2CCN(c3nc4ccccc4c4ccccc34)CC2)cc1,inactive: 18.1%
9,CCN(CC)C(=O)C1CCN(S(=O)(=O)c2ccc3c(c2)CCCN3C(=O)C2CCC2)CC1,inactive: -1.02%
10,Cc1c(C(=O)N2CCC3(CC2)CC(=O)c2ccccc2O3)cccc1[N+](=O)[O-],inconclusive: 71.9%
11,O=C(CCc1ccccc1)NC(=S)Nc1ccccc1[N+](=O)[O-],inactive: -2.34%
12,O=C(Cc1ccc([N+](=O)[O-])cc1)N1CCN(c2ccc([N+](=O)[O-])cc2)CC1,inconclusive: 33.9%
13,O=C(COc1ccc2cc(Br)ccc2c1Br)N1CCOCC1,inconclusive: 56%
14,CCc1cc(C(=O)N2CCCC(C(=O)c3ccc(Cl)cc3)C2)no1 (configuration not stated),inconclusive: 36%
15,COc1cc2c(C(=O)NCc3ccc4c(c3)OCO4)cn(CC(C)C)c(=O)c2cc1OC,inconclusive: 57.8%
16,CCOC(=O)C1CCCN(C(=O)C(C)(C)Oc2ccc(Cl)cc2)C1 (configuration not stated),inconclusive: 76.7%
17,Cc1cc(C)nc(NCC(O)COc2ccccc2C)n1 (configuration not stated),inconclusive: 38.6%
18,Oc1ccc(Nc2ccnc3cc(Cl)ccc23)cc1,inconclusive: 34.1%
19,CC(CNC(=O)c1ccc2c(c1)OCO2)c1ccc([N+](=O)[O-])cc1 (configuration not stated),inconclusive: 61.3%

row,SMILES,activation
1,COc1ccc(NC(=O)c2csc(Cc3ccc(Cl)cc3)n2)cc1,inconclusive: 33.8%
2,CCC(=O)Nc1nonc1-c1nc2ccccc2n1Cc1cccc2ccccc12,inactive: -4.78%
3,CC(=O)N1CCC(C(=O)OCc2ccccc2F)(c2ccccc2)CC1,inconclusive: 34.9%
4,Cc1cccc(N(Cc2ccccc2)C(=O)c2cc(S(=O)(=O)N3CCOCC3)ccc2Cl)c1,inconclusive: 37.5%
5,COC(=O)c1sccc1NC(=O)Nc1ccc(F)cc1,inconclusive: 37.3%
6,O=C1c2cccnc2C(Nc2ccc(Br)cc2)N1Cc1cccs1 (configuration not stated),active: 83.7%
7,Cc1ccc(-c2nnc(SC(C)C(=O)NCC3CCCO3)nc2-c2ccc(C)cc2)cc1 (configuration not stated),inconclusive: 45.3%
8,Cc1ccc(-n2c(N)c(C(=O)Nc3ccccc3F)sc2=S)cc1C,inconclusive: 33.6%
9,CC(C)(C)c1ccc2c(c1)OC(C(=O)N/N=C/c1ccc([N+](=O)[O-])o1)CO2 (configuration not stated),inconclusive: 37.3%
10,Cc1ccn2c(C(=O)CSc3ccccc3Cl)c(C)nc2c1,inconclusive: 31.4%
11,Cc1ccc(C2=NS(=O)(=O)N(C)C(C(=O)NCc3ccco3)=C2)cc1,inconclusive: 74%
12,Cc1cc2cc(CN(CCN(C)C)C(=S)NCc3ccco3)c(=O)[nH]c2cc1C,inconclusive: 45.4%
13,COc1ccc(S(=O)(=O)N2CCCCC2)cc1NC(=O)CCNC(=O)c1ccco1,inactive: 3.08%
14,Cc1cc(N2CCC(C(=O)NC3CC3)CC2)nc(-c2ccccc2)n1,inconclusive: 30.7%
15,CCC(Cc1ccccc1)NS(=O)(=O)c1ccc2c(c1)NC(=O)CO2 (configuration not stated),inconclusive: 31.4%
16,O=C(/C=C\c1ccc(-c2cccc([N+](=O)[O-])c2)o1)N1CCOCC1,inconclusive: 59.6%
17,Cc1cc([N+](=O)[O-])ccc1NC(=O)c1cc2ccccc2o1,inconclusive: 49.6%
18,CC(NC(=O)/C(C#N)=C/c1ccc(C(=O)O)cc1)c1ccccc1 (configuration not stated),inactive: -5.06%
19,O=C1CS/C(=N/N=C/c2ccncc2)N1,inactive: -1.18%

row,SMILES,activation
1,Cc1ccc(NC(=O)CN(C)C(=O)C(c2ccccc2)c2ccccc2)cc1,inconclusive: 32.7%
2,Cc1ccc(Cl)cc1NC(=O)Nc1cccs1,inactive: -0.0407%
3,CCN(CC)c1ccc(C(=O)O)cc1,inactive: -2.69%
4,COc1ccc(CNC(=O)CN(C)Cc2ccc(SC)cc2)cc1,inconclusive: 32.3%
5,CC(C)(C)c1ccc(OCCCn2ccnc2)cc1,inconclusive: 43.7%
6,O=C(NCC(c1ccc(F)cc1)N1CCOCC1)c1nn(-c2ccccc2)c(=O)c2ccccc12 (configuration not stated),inconclusive: 30.2%
7,O=C(NC1CCCC1)c1ccc(Cl)s1,inconclusive: 35.9%
8,CCOc1ccc(N2CC(C(=O)Nc3cc(Cl)ccc3-n3cncn3)CC2=O)cc1 (configuration not stated),inconclusive: 47.9%
9,CCN(CC)CCn1c(NCc2nc3ccccc3n2Cc2ccccc2)nc2ccccc21,inconclusive: 33.6%
10,CCOC(=O)c1ccc(NC(=O)c2ccccc2)cc1,inconclusive: 57.6%
11,CN1C(=O)/C(=C/c2coc3ccc(O)cc3c2=O)SC1=S,inactive: 3.85%
12,O=C(NC1CCSC1=O)c1ccc(Oc2cccc(C(F)(F)F)c2)nc1 (configuration not stated),inconclusive: 30.4%
13,CCOC(=O)C1CCCN(C(=O)C2c3ccccc3Oc3ccccc32)C1 (configuration not stated),inconclusive: 52.3%
14,O=C(CCSc1ccc(Cl)cc1)NC12CC3CC(CC(C3)C1)C2,inconclusive: 67.6%
15,Cc1nc(NCCc2ccc(O)cc2)c2nnn(Cc3ccccc3)c2n1,inconclusive: 37.5%
16,CC(C)NC(=O)c1ccc(-c2cc(C(F)(F)F)ccc2Cl)o1,inconclusive: 34.4%
17,COc1ccc(-c2noc(CCC(=O)N(C)c3cccc(C)c3)n2)cc1,inconclusive: 40.8%
18,OC1CCCN(c2c3c(nc4cc(-c5cccc(Cl)c5)nn24)CCC3)C1 (configuration not stated),inconclusive: 43.1%
19,O=C(Cc1ccccc1[N+](=O)[O-])N1CCN(c2ccc(F)cc2)CC1,inconclusive: 50.1%

# Rewritten with bars between the fields: 16 of the compounds above.
row | SMILES | activation
11 | O=C(CCc1ccccc1)NC(=S)Nc1ccccc1[N+](=O)[O-] | inactive: -2.34%
12 | O=C(Cc1ccc([N+](=O)[O-])cc1)N1CCN(c2ccc([N+](=O)[O-])cc2)CC1 | inconclusive: 33.9%
13 | O=C(COc1ccc2cc(Br)ccc2c1Br)N1CCOCC1 | inconclusive: 56%
14 | CCc1cc(C(=O)N2CCCC(C(=O)c3ccc(Cl)cc3)C2)no1 (configuration not stated) | inconclusive: 36%
15 | COc1cc2c(C(=O)NCc3ccc4c(c3)OCO4)cn(CC(C)C)c(=O)c2cc1OC | inconclusive: 57.8%
16 | CCOC(=O)C1CCCN(C(=O)C(C)(C)Oc2ccc(Cl)cc2)C1 (configuration not stated) | inconclusive: 76.7%
17 | Cc1cc(C)nc(NCC(O)COc2ccccc2C)n1 (configuration not stated) | inconclusive: 38.6%
18 | Oc1ccc(Nc2ccnc3cc(Cl)ccc23)cc1 | inconclusive: 34.1%
19 | CC(CNC(=O)c1ccc2c(c1)OCO2)c1ccc([N+](=O)[O-])cc1 (configuration not stated) | inconclusive: 61.3%
1 | COc1ccc(NC(=O)c2csc(Cc3ccc(Cl)cc3)n2)cc1 | inconclusive: 33.8%
2 | CCC(=O)Nc1nonc1-c1nc2ccccc2n1Cc1cccc2ccccc12 | inactive: -4.78%
3 | CC(=O)N1CCC(C(=O)OCc2ccccc2F)(c2ccccc2)CC1 | inconclusive: 34.9%
4 | Cc1cccc(N(Cc2ccccc2)C(=O)c2cc(S(=O)(=O)N3CCOCC3)ccc2Cl)c1 | inconclusive: 37.5%
5 | COC(=O)c1sccc1NC(=O)Nc1ccc(F)cc1 | inconclusive: 37.3%
6 | O=C1c2cccnc2C(Nc2ccc(Br)cc2)N1Cc1cccs1 (configuration not stated) | active: 83.7%
7 | Cc1ccc(-c2nnc(SC(C)C(=O)NCC3CCCO3)nc2-c2ccc(C)cc2)cc1 (configuration not stated) | inconclusive: 45.3%

# Source: PubChem BioAssay AID540275 (National Center for Advancing Translational Sciences (NCATS), 2011)
